Reference: US20230416704A1, “LACTONASE AND STABILIZED MUTANTS THEREOF FOR TREATING FUNGAL INFECTIONS IN PLANTS” (MIGAL GALILEE RESEARCH INSTITUTE LTD., priority 2020, published 2023)
The name of at least one read-out is uncertain.

Test: Enzyme kinetics analysis of EaAiiA with patulin
Conditions: calculated, pH 7.5

B1: EaAiiA: AHL lactonase encoded by Erwinia amylovora, metallo-β-lactamase fold (protein, listed as Erwinia amylovora)
chain: MNYHIIPVTAFAQNCSVIWCPETGEAALVDPGGDAQKIKHEIAALGLTVKQILLTHGHLDHVGAAAELAEHYDVPIVGPHKADKFWLDGLPQQSQMFGFDECAPLTPDRWLQEGEVVLVGNTVLEVLLCPGHTPGHIVFFERKARLLVSGDVIFSGGVGRSDFPQGSHQDLIASILNKLLPLGDDVTFIAGHGPMSTLGRERISNPFLQ
Which “specific activity (kcat/KM)” value does the source give for B1 here?
The value was 7100 M⁻¹ s⁻¹.
